In publication PMC10864336:
No constants are given. Whether binding was seen depends on the method and setting. Binding seen in cells or lysates may run through a third protein. Some results given as binding are weak or reduced against the parent protein; the word gives no strength. Where a sequence is shown, tags or fusion partners need not be part of it.

Target: T1, 3×FLAG-Tsc13 (WT) (S. cerevisiae) (UniProt Q99190)
T1 sequence: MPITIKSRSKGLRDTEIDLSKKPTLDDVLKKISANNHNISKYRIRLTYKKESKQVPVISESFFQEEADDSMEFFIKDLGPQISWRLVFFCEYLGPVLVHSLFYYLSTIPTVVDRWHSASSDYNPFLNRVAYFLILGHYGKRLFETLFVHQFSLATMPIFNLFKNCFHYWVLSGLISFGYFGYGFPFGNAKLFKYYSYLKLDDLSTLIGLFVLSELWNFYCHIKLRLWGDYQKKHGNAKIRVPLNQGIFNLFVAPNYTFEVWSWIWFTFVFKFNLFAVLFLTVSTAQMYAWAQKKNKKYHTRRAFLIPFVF
Assay: co-IP; membrane fractions of yeast cells solubilized with 1% Triton X-100; immunoprecipitation with anti-FLAG M2 affinity gel at 4 °C overnight (50 mM Hepes/NaOH pH 7.5, 0.2 M sorbitol, 150 mM NaCl, 1 mM DTT); washed with buffer containing 0.1% Triton X-100; immunoblotting with anti-FLAG and …; band intensity of the immunoprecipitate relative to the input

- binding: binds
B1: Elo2-6×HA (enzyme, UniProt P25358 1-347)
chain: MNSLVTQYAAPLFERYPQLHDYLPTLERPFFNISLWEHFDDVVTRVTNGRFVPSEFQFIAGELPLSTLPPVLYAITAYYVIIFGGRFLLSKSKPFKLNGLFQLHNLVLTSLSLTLLLLMVEQLVPIIVQHGLYFAICNIGAWTQPLVTLYYMNYIVKFIEFIDTFFLVLKHKKLTFLHTYHHGATALLCYTQLMGTTSISWVPISLNLGVHVVMYWYYFLAARGIRVWWKEWVTRFQIIQFVLDIGFIYFAVYQKAVHLYFPILPHCGDCVGSTTATFAGCAIISSYLVLFISFYINVYKRKGTKTSRVVKRAHGGVAAKVNEYVNVDLKNVPTPSPSPKPQHRRKR
